Test results published in publication PMC6102588, “Quaternary Structure, Salt Sensitivity, and Allosteric Regulation of β-AMYLASE2 From Arabidopsis thaliana” (Frontiers in Plant Science, 2018).
Results are given in words; binding and its absence hold for the method and conditions named.

Protein sequences, listed by entry. Tags and fused reporters are not part of them. Lines headed by an entry give the natural chain unless they say otherwise; changes in a name come on top. Chains listed by the source or under a name are the forms on record and can include a tag or linker.
BAM2 D490R mutant (Interface A) (O65258, form named): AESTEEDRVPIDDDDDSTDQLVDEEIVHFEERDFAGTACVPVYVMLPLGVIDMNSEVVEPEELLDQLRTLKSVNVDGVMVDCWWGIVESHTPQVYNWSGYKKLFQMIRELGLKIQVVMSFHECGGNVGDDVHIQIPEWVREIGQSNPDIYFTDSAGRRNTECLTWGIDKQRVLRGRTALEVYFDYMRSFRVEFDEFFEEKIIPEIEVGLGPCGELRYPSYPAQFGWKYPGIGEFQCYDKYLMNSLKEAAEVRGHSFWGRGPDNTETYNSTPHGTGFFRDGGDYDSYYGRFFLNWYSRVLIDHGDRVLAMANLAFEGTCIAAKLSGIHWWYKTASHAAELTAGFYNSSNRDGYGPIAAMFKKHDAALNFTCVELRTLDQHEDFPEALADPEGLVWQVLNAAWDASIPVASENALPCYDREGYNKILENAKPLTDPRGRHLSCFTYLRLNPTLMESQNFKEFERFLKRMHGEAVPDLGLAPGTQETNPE

Biological target: BAM2 D490R mutant (Interface A) (Arabidopsis thaliana) (UniProt O65258)
Assay: SEC-MALS; proteins at 1-2 mg mL^-1 injected into a 4.6 x 300 mm size-exclusion column, 0.5 mL min^-1, 10 mM MOPS, pH 7, 250 mM KCl; masses are averages, n = 3; both purified

Substance: BAM2 D490R mutant (Interface A) (from UniProt O65258 56-542) (enzyme)
- binding: no binding (tested: 1–2 mg mL^−1)
